Assay results published in the supplement of paper PMC10849652.
The other results are listed elsewhere or left out.

The chains behind the UniProt entries cited, without tags or fusion partners. Where a name states a change or a piece, a line headed by the entry shows the natural chain unless it says otherwise.
UniProt Q9BQT9: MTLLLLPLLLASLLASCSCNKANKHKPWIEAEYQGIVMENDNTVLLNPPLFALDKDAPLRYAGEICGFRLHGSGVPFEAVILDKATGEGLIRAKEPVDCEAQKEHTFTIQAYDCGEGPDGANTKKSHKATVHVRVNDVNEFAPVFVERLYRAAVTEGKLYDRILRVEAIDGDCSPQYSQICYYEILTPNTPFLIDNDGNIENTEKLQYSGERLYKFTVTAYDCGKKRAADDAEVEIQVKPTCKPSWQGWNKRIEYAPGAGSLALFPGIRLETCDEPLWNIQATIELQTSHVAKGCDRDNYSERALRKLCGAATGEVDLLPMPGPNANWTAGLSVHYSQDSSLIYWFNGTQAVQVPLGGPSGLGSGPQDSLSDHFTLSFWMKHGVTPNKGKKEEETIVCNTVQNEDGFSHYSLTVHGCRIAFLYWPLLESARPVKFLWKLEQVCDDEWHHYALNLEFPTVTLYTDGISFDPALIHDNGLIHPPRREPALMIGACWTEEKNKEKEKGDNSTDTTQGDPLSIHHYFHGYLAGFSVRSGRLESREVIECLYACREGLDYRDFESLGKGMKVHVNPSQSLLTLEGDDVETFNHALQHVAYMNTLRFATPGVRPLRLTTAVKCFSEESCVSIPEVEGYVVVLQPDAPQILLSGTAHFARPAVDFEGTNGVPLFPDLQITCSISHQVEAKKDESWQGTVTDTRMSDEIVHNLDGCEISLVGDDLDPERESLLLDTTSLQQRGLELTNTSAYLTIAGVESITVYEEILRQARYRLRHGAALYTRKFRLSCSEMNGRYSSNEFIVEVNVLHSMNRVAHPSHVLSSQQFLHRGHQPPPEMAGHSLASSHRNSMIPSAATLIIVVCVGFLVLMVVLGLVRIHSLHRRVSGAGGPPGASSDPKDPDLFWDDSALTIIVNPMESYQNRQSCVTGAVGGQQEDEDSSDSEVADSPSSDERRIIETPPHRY
UniProt Q8N0X4: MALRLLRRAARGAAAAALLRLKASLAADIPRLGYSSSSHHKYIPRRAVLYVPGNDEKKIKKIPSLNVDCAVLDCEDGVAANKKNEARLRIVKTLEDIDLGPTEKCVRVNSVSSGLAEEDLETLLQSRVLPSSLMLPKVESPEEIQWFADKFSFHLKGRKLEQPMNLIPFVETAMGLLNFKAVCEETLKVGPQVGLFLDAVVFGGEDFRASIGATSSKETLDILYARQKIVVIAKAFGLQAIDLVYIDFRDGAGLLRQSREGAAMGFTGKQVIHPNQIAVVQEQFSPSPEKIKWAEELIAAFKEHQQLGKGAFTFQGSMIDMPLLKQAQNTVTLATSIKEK
UniProt P30622: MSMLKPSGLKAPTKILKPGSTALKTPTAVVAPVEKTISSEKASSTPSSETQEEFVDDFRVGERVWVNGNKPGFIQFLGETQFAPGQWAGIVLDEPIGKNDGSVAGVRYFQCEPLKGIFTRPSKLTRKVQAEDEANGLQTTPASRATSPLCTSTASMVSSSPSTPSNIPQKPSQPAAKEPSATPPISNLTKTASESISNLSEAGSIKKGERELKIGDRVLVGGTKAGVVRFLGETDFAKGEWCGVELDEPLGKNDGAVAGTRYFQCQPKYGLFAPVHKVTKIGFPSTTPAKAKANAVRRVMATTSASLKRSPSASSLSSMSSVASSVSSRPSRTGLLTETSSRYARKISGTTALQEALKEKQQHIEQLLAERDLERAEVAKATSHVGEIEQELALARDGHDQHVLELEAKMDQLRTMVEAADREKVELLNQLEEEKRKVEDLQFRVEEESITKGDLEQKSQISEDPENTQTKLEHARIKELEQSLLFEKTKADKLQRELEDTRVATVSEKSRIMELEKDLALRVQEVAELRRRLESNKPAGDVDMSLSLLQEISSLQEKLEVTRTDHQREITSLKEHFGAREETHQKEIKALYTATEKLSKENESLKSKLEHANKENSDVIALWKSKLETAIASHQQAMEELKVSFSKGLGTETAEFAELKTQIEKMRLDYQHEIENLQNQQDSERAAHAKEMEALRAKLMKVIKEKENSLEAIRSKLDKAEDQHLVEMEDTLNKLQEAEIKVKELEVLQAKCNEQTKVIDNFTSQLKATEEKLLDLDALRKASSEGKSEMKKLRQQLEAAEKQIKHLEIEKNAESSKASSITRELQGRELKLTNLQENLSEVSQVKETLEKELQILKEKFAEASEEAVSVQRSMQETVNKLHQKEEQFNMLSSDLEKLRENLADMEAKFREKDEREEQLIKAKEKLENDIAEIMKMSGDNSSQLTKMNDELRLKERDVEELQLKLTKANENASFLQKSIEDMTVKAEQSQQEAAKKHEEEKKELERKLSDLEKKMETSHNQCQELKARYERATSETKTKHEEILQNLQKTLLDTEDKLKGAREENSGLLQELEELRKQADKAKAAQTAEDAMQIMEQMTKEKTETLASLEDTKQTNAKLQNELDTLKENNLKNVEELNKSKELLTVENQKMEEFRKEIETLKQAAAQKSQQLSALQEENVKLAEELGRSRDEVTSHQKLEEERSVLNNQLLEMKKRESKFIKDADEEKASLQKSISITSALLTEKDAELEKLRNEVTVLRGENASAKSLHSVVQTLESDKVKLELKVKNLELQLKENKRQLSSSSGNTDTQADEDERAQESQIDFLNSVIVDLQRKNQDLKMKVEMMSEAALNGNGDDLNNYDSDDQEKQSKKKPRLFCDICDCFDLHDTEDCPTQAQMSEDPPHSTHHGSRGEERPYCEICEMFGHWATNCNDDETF
UniProt P39060, whole entry, looked up: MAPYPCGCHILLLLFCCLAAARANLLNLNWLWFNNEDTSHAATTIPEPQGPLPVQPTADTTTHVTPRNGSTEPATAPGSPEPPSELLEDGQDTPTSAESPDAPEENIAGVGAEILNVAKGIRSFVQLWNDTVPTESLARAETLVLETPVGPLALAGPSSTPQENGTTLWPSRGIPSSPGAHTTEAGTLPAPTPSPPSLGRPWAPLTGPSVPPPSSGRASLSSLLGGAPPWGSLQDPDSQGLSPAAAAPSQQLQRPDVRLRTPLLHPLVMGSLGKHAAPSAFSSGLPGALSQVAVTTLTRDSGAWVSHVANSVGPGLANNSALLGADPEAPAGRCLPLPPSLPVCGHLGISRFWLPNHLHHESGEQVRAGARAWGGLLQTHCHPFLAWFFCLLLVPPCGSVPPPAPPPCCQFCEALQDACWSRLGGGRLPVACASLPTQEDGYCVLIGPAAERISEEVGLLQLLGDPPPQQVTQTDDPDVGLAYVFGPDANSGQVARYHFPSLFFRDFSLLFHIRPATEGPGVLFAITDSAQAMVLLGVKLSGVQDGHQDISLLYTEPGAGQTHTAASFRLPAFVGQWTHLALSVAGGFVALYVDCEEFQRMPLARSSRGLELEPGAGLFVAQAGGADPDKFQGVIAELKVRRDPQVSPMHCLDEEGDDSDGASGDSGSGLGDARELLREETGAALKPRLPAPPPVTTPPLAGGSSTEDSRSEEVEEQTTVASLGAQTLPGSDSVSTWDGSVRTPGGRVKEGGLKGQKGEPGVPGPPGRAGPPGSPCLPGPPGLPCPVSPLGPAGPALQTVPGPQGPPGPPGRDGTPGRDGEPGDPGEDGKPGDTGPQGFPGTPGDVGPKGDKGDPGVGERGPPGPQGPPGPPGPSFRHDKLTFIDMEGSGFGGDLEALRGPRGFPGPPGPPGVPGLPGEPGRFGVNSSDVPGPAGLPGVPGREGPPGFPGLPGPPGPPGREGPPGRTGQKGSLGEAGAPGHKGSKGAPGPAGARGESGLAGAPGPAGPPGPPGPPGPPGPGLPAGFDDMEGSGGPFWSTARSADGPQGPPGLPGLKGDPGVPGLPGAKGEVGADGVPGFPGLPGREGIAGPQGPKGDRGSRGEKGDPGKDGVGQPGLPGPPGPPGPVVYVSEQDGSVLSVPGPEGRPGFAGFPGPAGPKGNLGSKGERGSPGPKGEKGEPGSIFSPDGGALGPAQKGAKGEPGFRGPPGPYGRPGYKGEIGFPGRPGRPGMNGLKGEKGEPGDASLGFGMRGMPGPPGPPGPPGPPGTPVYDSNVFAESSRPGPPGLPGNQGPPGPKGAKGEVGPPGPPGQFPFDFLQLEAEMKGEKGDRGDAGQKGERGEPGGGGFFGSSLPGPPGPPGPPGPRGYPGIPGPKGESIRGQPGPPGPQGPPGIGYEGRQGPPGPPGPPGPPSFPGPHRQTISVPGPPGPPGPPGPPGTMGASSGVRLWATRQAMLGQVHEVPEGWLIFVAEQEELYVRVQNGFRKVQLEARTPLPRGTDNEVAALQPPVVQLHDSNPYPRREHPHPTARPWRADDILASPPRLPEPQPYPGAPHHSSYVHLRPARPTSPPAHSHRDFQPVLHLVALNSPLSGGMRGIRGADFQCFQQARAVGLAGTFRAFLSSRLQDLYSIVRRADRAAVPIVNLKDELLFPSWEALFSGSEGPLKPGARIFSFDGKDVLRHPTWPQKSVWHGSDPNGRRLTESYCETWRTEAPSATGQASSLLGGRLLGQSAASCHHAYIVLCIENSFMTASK
UniProt P56749: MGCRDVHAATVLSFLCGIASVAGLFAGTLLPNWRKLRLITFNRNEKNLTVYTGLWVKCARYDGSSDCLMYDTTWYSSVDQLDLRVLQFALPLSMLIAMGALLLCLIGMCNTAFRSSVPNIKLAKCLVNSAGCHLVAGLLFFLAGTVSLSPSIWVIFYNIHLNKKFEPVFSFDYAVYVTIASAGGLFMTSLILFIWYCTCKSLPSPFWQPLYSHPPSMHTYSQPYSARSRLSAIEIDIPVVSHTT
UniProt P33552, whole entry, looked up: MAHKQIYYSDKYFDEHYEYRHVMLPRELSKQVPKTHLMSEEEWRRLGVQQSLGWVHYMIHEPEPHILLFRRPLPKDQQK
UniProt Q8IY22: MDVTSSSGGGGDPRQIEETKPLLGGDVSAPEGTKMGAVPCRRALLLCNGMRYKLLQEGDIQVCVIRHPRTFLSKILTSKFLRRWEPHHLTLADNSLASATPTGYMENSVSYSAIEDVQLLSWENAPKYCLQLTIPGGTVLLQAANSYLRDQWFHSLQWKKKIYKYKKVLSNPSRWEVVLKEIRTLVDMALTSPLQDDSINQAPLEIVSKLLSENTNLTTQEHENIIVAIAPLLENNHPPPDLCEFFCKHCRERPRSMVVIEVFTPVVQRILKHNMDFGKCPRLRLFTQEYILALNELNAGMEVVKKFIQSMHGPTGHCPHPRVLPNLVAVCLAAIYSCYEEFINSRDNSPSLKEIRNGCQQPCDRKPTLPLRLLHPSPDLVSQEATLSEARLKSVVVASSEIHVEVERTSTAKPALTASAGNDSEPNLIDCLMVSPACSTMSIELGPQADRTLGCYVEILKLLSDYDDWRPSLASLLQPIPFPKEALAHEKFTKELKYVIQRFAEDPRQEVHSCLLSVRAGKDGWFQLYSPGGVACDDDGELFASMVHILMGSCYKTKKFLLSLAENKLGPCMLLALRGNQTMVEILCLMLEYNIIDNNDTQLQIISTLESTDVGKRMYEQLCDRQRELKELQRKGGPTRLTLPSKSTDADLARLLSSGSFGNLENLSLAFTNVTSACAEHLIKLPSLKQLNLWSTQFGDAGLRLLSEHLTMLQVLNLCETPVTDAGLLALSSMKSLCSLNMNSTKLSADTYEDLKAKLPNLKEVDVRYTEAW
UniProt Q8IZR5: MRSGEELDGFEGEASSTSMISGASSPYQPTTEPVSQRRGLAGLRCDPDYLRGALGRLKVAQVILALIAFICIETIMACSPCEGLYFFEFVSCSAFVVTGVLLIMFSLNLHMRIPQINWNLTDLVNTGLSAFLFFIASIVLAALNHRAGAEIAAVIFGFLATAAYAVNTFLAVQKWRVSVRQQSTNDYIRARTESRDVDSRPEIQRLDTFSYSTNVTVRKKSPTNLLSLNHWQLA
UniProt Q07065: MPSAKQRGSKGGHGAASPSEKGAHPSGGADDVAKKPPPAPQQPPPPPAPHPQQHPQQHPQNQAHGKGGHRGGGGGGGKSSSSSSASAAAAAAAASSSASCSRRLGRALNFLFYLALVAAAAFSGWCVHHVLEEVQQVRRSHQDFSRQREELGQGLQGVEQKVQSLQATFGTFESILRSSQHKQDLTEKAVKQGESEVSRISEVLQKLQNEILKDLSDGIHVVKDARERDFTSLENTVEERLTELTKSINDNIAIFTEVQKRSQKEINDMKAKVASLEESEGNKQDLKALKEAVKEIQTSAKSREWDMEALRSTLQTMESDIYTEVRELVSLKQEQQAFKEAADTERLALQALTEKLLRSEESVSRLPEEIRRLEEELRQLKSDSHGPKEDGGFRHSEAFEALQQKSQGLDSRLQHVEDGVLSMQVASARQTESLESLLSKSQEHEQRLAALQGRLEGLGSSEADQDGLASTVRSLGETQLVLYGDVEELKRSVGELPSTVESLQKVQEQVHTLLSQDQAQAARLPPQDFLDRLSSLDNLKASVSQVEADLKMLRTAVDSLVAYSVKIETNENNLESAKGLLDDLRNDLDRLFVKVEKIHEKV
UniProt P62633: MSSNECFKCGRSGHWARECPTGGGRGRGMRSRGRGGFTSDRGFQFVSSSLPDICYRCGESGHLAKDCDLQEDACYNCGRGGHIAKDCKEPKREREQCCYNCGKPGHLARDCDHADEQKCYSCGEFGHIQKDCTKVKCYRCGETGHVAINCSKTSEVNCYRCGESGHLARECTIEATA

How the values were obtained:
Assay in all cases: log2 fold change, soluble protein after heating vs DMSO (PISA); higher = thermal stabilisation; K562 cells, 10 uM, 30 min; active = over 0.2 and 3.5 SD of the protein, either way, in both replicates (recomputed)
idasanutlin = compound: COc1cc(C(=O)O)ccc1NC(=O)[C@@H]1N[C@@H](CC(C)(C)C)[C@](C#N)(c2ccc(Cl)cc2F)[C@H]1c1cccc(Cl)c1F [idasanutlin]
How it was run: (§1)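 K562 cells at 2×10^6 cells/mL were treated with 10 μM compound for 30 min. Aliquots were heated for 3 min across 48°C-58°C, pooled, and extracted in PBS with 0.5% NP-40 at 4°C; soluble protein was the supernatant after 21,000xg for 90 min. Soluble protein was quantified by TMTpro 16plex LC-MS/MS with channel sums equalised, and reported as log2 fold change in thermal stability against DMSO controls, with values from duplicates.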

[1] = compound: COc1cc2nc(-c3cc(F)ccc3O)nc(N[C@@H]3CNC[C@H]3C(C)(C)O)c2cc1OC
How it was run: as §1

lapatinib = compound: CS(=O)(=O)CCNCc1ccc(-c2ccc3ncnc(Nc4ccc(OCc5cccc(F)c5)c(Cl)c4)c3c2)o1 [lapatinib]
How it was run: as §1

filanesib = compound: CON(C)C(=O)N1N=C(c2cc(F)ccc2F)S[C@@]1(CCCN)c1ccccc1 [filanesib]
How it was run: as §1

zotarolimus = compound: CO[C@H]1C[C@@H]2CC[C@@H](C)[C@@](O)(O2)C(=O)C(=O)N2CCCC[C@H]2C(=O)O[C@H]([C@H](C)C[C@@H]2CC[C@H](n3cnnn3)[C@H](OC)C2)CC(=O)[C@H](C)/C=C(\C)[C@@H](O)[C@@H](OC)C(=O)[C@H](C)C[C@H](C)/C=C/C=C/C=C/1C [zotarolimus]
How it was run: as §1

alisertib = compound: COc1cc(Nc2ncc3c(n2)-c2ccc(Cl)cc2C(c2c(F)cccc2OC)=NC3)ccc1C(=O)O [alisertib]
How it was run: as §1

[2] = compound: COc1cccc2cc(-c3nc([C@H]4CC[C@H](C(=O)O)CC4)n4ncnc(N)c34)[nH]c12
How it was run: as §1

gefitinib = compound: COc1cc2ncnc(Nc3ccc(F)c(Cl)c3)c2cc1OCCCN1CCOCC1 [gefitinib]
How it was run: as §1

pictilisib = compound: CS(=O)(=O)N1CCN(Cc2cc3nc(-c4cccc5[nH]ncc45)nc(N4CCOCC4)c3s2)CC1 [pictilisib]
How it was run: as §1

Measured: log2 fold change

CLSTN3 isoform 2 (UniProt Q9BQT9)
inactive: idasanutlin 0.132 | [1] 0.034 | lapatinib 0.063

CLYBL (UniProt Q8N0X4)
inactive: [1] 0.39 | lapatinib -0.19

CLP1 (UniProt Q92989)
inactive: filanesib -0.066 | zotarolimus -0.153 | alisertib 0.067 | [2] 0.052

CNRIP1 (UniProt Q96F85)
inactive: alisertib 0.075 | [1] 0.282 | gefitinib 0.002 | [2] -0.223 | lapatinib 0.054

CLIP1 isoform 2 (UniProt P30622)
inactive: filanesib 0.057 | zotarolimus 0.044 | alisertib -0.705 | [1] 0.072 | gefitinib 0.012 | [2] -0.076 | lapatinib 0.03

COL18A1 (UniProt P39060)
inactive: filanesib 0.098 | zotarolimus -0.085 | idasanutlin 0.181 | alisertib -0.019 | [1] -0.122 | gefitinib 0.046 | [2] 0.314 | lapatinib -0.001 | pictilisib -0.017

CHPT1 (UniProt Q8WUD6)
inactive: filanesib -0.345 | zotarolimus -0.017 | idasanutlin -0.018 | alisertib -0.136 | [1] -0.009 | gefitinib 0.013 | [2] -0.015 | lapatinib 0.159 | pictilisib -0.096

CIRBP (UniProt Q14011)
inactive: zotarolimus 0.023 | idasanutlin 0.137 | alisertib 0.018 | [1] -0.093 | gefitinib -0.056 | [2] -0.051 | lapatinib 0.031 | pictilisib 0.072

CLDN12 (UniProt P56749)
inactive: filanesib 0.196 | alisertib -0.133 | [2] -0.046

CKS2 (UniProt P33552)
inactive: idasanutlin 0.193 | alisertib -0.029 | [1] 0.184 | gefitinib 0.093 | [2] 0.14 | lapatinib -0.036 | pictilisib -0.666

COG7 (UniProt P83436)
inactive: zotarolimus 0.104 | idasanutlin -0.486 | alisertib -0.079 | [1] 0.051 | [2] 0.148 | lapatinib -0.002

COL12A1 (UniProt Q99715)
inactive: filanesib 0.115 | [1] 0.078 | lapatinib -0.049

4 neighbouring entries from above:
COL18A1 (UniProt P39060)
inactive: filanesib 0.098 | zotarolimus -0.085 | idasanutlin 0.181 | alisertib -0.019 | [1] -0.122 | gefitinib 0.046 | [2] 0.314 | lapatinib -0.001 | pictilisib -0.017

CHPT1 (UniProt Q8WUD6)
inactive: filanesib -0.345 | zotarolimus -0.017 | idasanutlin -0.018 | alisertib -0.136 | [1] -0.009 | gefitinib 0.013 | [2] -0.015 | lapatinib 0.159 | pictilisib -0.096

CIRBP (UniProt Q14011)
inactive: zotarolimus 0.023 | idasanutlin 0.137 | alisertib 0.018 | [1] -0.093 | gefitinib -0.056 | [2] -0.051 | lapatinib 0.031 | pictilisib 0.072

CLDN12 (UniProt P56749)
inactive: filanesib 0.196 | alisertib -0.133 | [2] -0.046

Continued:

CLPTM1L (UniProt G5E9Z2)
inactive: filanesib -0.235 | zotarolimus -0.101 | idasanutlin -0.446 | alisertib -0.199 | gefitinib -0.142 | [2] 0.099

CMYA5 (UniProt Q8N3K9)
inactive: filanesib 0.144 | zotarolimus -0.335 | alisertib -0.047 | gefitinib -0.013 | [2] -0.002

CMIP (UniProt Q8IY22)
inactive: filanesib 0.257 | alisertib -0.149 | [2] -0.427 | pictilisib -0.001

COIL (UniProt P38432)
inactive: filanesib -0.142 | idasanutlin 0.039 | [1] -0.206 | gefitinib 0.017 | lapatinib -0.055

CMTM4 (UniProt Q8IZR5)
inactive: filanesib 0.076 | idasanutlin -0.145 | alisertib -0.105 | gefitinib 0.169 | [2] 0.06

CNOT6 (UniProt Q9ULM6)
inactive: filanesib -0.028 | zotarolimus -0.056 | idasanutlin -0.121 | alisertib -0.219 | gefitinib 0.062 | [2] -0.044 | pictilisib -0.21

CHPF2 (UniProt Q9P2E5)
inactive: filanesib -0.052 | zotarolimus 0.083 | idasanutlin 0.07 | alisertib -0.242 | [1] -0.005 | gefitinib 0.402 | [2] -0.016 | lapatinib 0.103 | pictilisib -0.041

CNEP1R1 isoform 2 (UniProt Q8N9A8)
inactive: zotarolimus -0.115 | idasanutlin 0

CKAP4 (UniProt Q07065)
inactive: filanesib -0.082 | zotarolimus -0.007 | idasanutlin 0.023 | alisertib 0.045 | [1] -0.005 | gefitinib 0.072 | [2] 0.038 | lapatinib 0.012

CNBP isoform 4 (UniProt P62633)
inactive: alisertib -0.085 | gefitinib 0 | [2] 0.027
